Z-score data for 107 sequences are collected here from PubChem BioAssay AID1508600 (Functional Genomics Laboratory (NCATS/FGL), 2020).

Screen size: about 53,000 sequences; about 3,700 (7%) were called active.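 Rule for the calls: active = gene knockdowns whose robust z-score for IL-1 alpha signal is at least 2 or at most -2, so actives lie on both sides; inactive = the rest.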 The list shows a part of the results.

The assay can be described thus: Components of the Cytosolic LPS Sensing Pathway: Gene Identification via Genome-wide siRNA Screen.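 Note: robust z of the log signal after scaling to non-targeting control siRNA wells of the plate.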 The note with it: RAW264.7 macrophages, IL-1a HTRF, actives lie on both sides, screened at 100 nM (by protocol), cells primed 5 h with Pam3CSK4 first. The method, boiled down:
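IL-1a HTRF of supernatants after 24 hour LipidA transfection of Pam3CSK4-primed (5 hours) RAW264.7 cells, 48h post-siRNA transfection (100 nM). Scores: percent of plate negative-control median, then log-based robust z-score.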
For orientation: Time-resolved FRET reads energy transfer from a long-lived donor to a nearby acceptor.
Turning to GCAUUAAAGUGCUGUUCUUTT against Ccdc130, the z-score was inactive: 0.814.
The figure for GCUUCAGACCCACGCAUAATT against Taf10 is inactive: -0.179; for CCUCAAAUUUUGGGUCUCATT against Bcat2 it is inactive: -1.48.
As for CGCGCUGCCAGAUACACUATT against H2bc8, the z-score was inactive: -0.656.
The figure for “GGCACUGGAUCUUACAGAATT against 1700034I23Rik” is inactive: 0.542.
The figure for GGAGAUUUACUCACAGUUCTT against Kcnip4 is inactive: 1.26; for GGUCUGUCUCGUCUACAAUTT against Gstm1 it is active: 2.98; for GGCAGAAUGGGAAAUGUAUTT against Htr7 it is inactive: -0.841.
The same measure for GGAAGCCACCUUAACAUUATT against Osgin1: inactive: -0.814; for CCCUCAGUACCUAAUUAAGTT against Capn2: inactive: -0.697.
For GGAACUCCUAAAGAAGAGGTT against Galntl5, the z-score was inactive: 0.428.
The figure for CGAAUACGAAGCAGAAAAGTT against Smarce1 is inactive: 1.43; for GGAAGAUGCUUUUGUAAGUTT against Smyd4 it is inactive: 0.698; for GCCAAUUUGGAUAUUCAUGTT against Spopl it is inactive: -0.386.
As for GGAGUGUGUCUAUACUAUUTT against Otor, the z-score was inactive: 1.56.
On to GGCUCAAAAUGUUCAAGCCTT against Trim12a, for which the z-score was inactive: 1.35.
Consider GGCAAGAAAUUCAAAAGCUTT against Supv3l1, for which the z-score is inactive: -0.524.
The same measure for GCAUUUUGCCCAAUCAAGATT against Pcare: inactive: 0.696; for GGACUCUUUUUUUACCUUGTT against Trir: inactive: -1.61.
The figure for CAAGCAGUAAGGAUAUCCATT against Nlrp4e is inactive: -1.82; for CAUUGUCAUUCUGCUGGCATT against Olfr1249 it is inactive: -0.0752.
The figure for GCUGCACAAGUGCAUUUUUTT against Srp14 is inactive: -1.34; for GUGUGAAGUGCAGACUGAGTT against Trrap it is inactive: -1.27; for AACAUUGCUUACCUUAGUGTT against Mrgprb1 it is inactive: -1.11.
With GGAGGUUUUCUGGUAGCUGTT against Rnf138, the z-score was inactive: -0.372.
With GGGUUCUGCAUGUUGAUUCTT against Chm, the z-score is inactive: -0.853.
With GCAAAUUGAGCUCCUACUCTT against Traip, the z-score was inactive: 0.178.
Turning to GCUAUGAAUCAGAAUGAAGTT against Bend6, the z-score was inactive: 0.134.
The figure for CCCUAUAUGAAUAACUCAUTT against Zfp300 is inactive: -0.498; for “GCAUAUCCUCCAAAAGAAATT against 2010106E10Rik” it is inactive: -1.2.
The same measure for GCAUCAGAGGGAUUUCACUTT against Slc35d3: active: -2.68; for GAUGCAGUGCAAAGUAUACTT against Cldn9: inactive: 1.7; for GCCUUAUCCCUCAUGUUACTT against Pde1c: inactive: 1.11.
The same measure for CGUCUGUCUGUAUGAAAUUTT against Ttc39c: inactive: -0.0872; for CCUUAAGGCUGAUUGGGACTT against Nudt16l2: inactive: 0.528; for GGUCCAGAGAAUGUUAUUATT against Spinkl: inactive: 0.263.
Consider CCGAUGACGAACAGUUUGATT against Eif4ebp3, for which the z-score is active: 2.08.
Regarding GAAUAUACUCUUUGUGGUATT against Olfr1220, the z-score was inactive: 0.0434.
The figure for GGCAGAACAUUAAUAGAUATT against Polr3h is inactive: -1; for CGAGCAAUUAAAUUCCUGUTT against Api5 it is inactive: 0.286; for GGGCUUACUGCUUAAUAGATT against Fundc2 it is inactive: 0.481.
Take UCGAAGAUUGGUCUAAAUUTT against Tepp: the z-score is inactive: 0.212.
The same measure for GCCUUUUCCUGGUACUCGGTT against Ceacam13: inactive: 1.36.
The figure for GGUGUAUUUUGUGACUAUCTT against Ugt1a9 is inactive: 0.0698; for GGCUUCGCUCUGGUUUACUTT against Rap1b it is inactive: 0.323.
The figure for CGGAUGGAGCUAUGAUGUGTT against Ndufs4 is inactive: -0.277; for GGACCAUCAGAGGAGAACUTT against Cuedc2 it is active: -2.09.
For the sequence GGAGAUUAUUAACUUCACCTT against Hcn3, the z-score is inactive: -0.895.
For the sequence GGAUUUCCUUUUAAGACUUTT against Rab3il1, the z-score is inactive: -0.71.
Take GGACAUGAAGUGUAUAUAUTT against Il13ra2: the z-score was inactive: -0.511.
The figure for GGCCACAGAAUUGAAAGAUTT against Il2 is inactive: -0.622.
GCUGAAUACCCUUUUAGUUTT against Atp2c1: the z-score is inactive: 0.317.
The figure for GGAAGCAACAUGGAUACUATT against Mecom is inactive: 0.707.
With CCUUUGUGACCAAGAUGGUTT against Ttyh3, the z-score is inactive: -0.0597.
With GGCUAAAGUGAGCUCUUCATT against Nob1, the z-score was inactive: -0.947.
Regarding GCCUAUUCUUUUCGGGAUATT against Olfr39, the z-score was inactive: 1.13.
GGACAGUUAAUGUUUCUGUTT against Clptm1l: the z-score is inactive: 0.254.
The figure for AAUGAUGCCAUAAAGAGUGTT against Olfr114 is inactive: -0.299; for GGACUAUAUGAGAUAAACUTT against Pask it is inactive: 0.371.
The figure for GGAGACAGAGAAGAUUUGUTT against Mia2 is inactive: -0.21; for “GGUACAGUUAACUACAAACTT against C130023O10Rik” it is inactive: 1.79.
The figure for GGAAAAGCAAACCAGAAUCTT against Nr1d1 is inactive: 0.66; for GGUGCUGUGUUUACGUUUGTT against Rpgr it is inactive: 0.349.
On to GGUCUUUGAGAAGUACCACTT against Chst3, for which the z-score was inactive: -0.22.
The figure for CCUGUUAGCUAGAGUAGGATT against Skint7 is inactive: 0.76.
For GCGAUUGAGCAGUGAAUAATT against Fam216b, the z-score is inactive: 1.06.
Regarding CGGUAAUUGCAUUUUAAAGTT against Vps4b, the z-score was inactive: 0.618.
The figure for CGAAGCAACAAGGAAAUUGTT against Anxa13 is inactive: 0.465; for GGCCAAUUUGUUGAUUCCUTT against Rheb it is inactive: -1.32; for GAUAAUGACCAGGCUACCATT against Magea7-ps it is inactive: 0.069.
The figure for CCAUAGGUAUCAUUGCAAGTT against Tas2r139 is active: -2.16; for GGCCUGAGAGUAACUCAAATT against Fhit it is inactive: -0.21.
The figure for GGAAGAAAAGGUAUUUCUUTT against Sub1 is inactive: 0.438; for CCAUAUAUGAUAGGAAACUTT against Pon2 it is inactive: -0.288; for CGGUGCUUCUGAAACUAGATT against Lrrc3 it is inactive: 1.69.
Regarding GGCAAAUAGUUUCUUCAAUTT against Npnt, the z-score was inactive: -0.485.
The figure for GGAAUUCUUCAUCCAUGGATT against Olfr570 is active: -2.66; for GGUGAACAUAGAUCACGAGTT against Rgs16 it is inactive: -0.54.
The same measure for GGGAUUCAUACUACUUAACTT against Olfr304: inactive: 1.32.
The same measure for GGGUUCGAUACGACUGCCATT against Arhgef7: inactive: -0.798; for GGCUCAACGGCUUAGGGAATT against B3gat3: inactive: 1.42; for GCCGAAUCCGAACAAAACCTT against Tat: inactive: 0.263.
GGAUCACUAACUUUUCCAATT against Trpc3: the z-score is active: 3.46.
The same measure for GCACACCAGAUCUACUUCUTT against Cyp2b9: inactive: 0.3; for GCUCAUAAGUCUAUUACUGTT against Asb14: inactive: -0.0222.
The same measure for GGAACAGCGGCUAACUUAUTT against Asic4: inactive: 1.4; for GGAGAAGCUAGAGUUCAUGTT against Fosl2: inactive: -0.787; for GCUGAACUAUCCCUUAGUGTT against Rccd1: inactive: -0.69.
The same measure for GGUCAUCGUGUUUGGUUUCTT against Dcaf15: inactive: 0.839.
Turning to CGAUAAAUCACCUCAAGAUTT against Kcnn4, the z-score was inactive: -1.03.
The same measure for GGAUGUGGUGGUAUUAGACTT against Phykpl: active: 2.5; for UACUUGUAGCCAUGGCUCUTT against Olfr685: inactive: 0.334.
As to UGGUGGUGUUUUUUAACUCTT against Pdp2, the z-score is inactive: 0.161.
The same measure for GGAUGUAUCUGAACAAUACTT against Mlst8: inactive: -0.464.
The same measure for GGAGAUUCGGAAAAUGUGUTT against Vac14: inactive: -1.79; for GGUUCUUUGUGAACUUCCCTT against Cygb: inactive: 0.0783; for CGCAAUAAAGAAGAUAAACTT against Slc35f3: inactive: -0.417.
Turning to GAUCUUUGUCCUCAUUCUCTT against Olfr1206, the z-score is inactive: -1.09.
The same measure for GCACGAGGAUUCAGAUAUCTT against Gusb: inactive: -0.449; for GGAUCACAUACGUACACAATT against Dpp8: inactive: 0.301; for GCUAGAUGCUAUGAAGCGATT against Ap3b1: inactive: -0.406.
The figure for GGGCAACCUGUCACAUUAUTT against Spam1 is inactive: 1.16; for GCUCUACUGCGCUACCAAGTT against Fgf3 it is inactive: 0.315.
The figure for CCACUAUGACUUCAGGUGUTT against Olfr1465 is inactive: -0.137; for GGAAAAGCUAAUCUUACUATT against Nop16 it is inactive: -0.77.
As to CGGCUCCUUUCAUAUUACCTT against Akap7, the z-score was inactive: -0.292.
Take CGCCCAUGUACAGAUUUGUTT against Olfr429: the z-score is active: -2.33.
